Experimental data published in patent publication US10912846B2, “Molecular probes for chemiluminescence imaging and in vivo detection of target molecules” (ARIZONA BOARD OF REGENTS ON BEHALF OF THE UNIVERSITY OF …, priority 2015, dated 2021).
Some of these results come from one statement about several compounds together.

Experiment: In vitro chemiluminescence from oxidation by non-H2O2 ROS
Conditions: PBS pH 7.4; PMT −400 V
Method: Solutions of 3 and luminol were prepared in 0.01 M PBS (pH of 7.4). For all ROS other than H2O2, the reaction was carried out by mixing 200 μL of the ROS solution (1.0×10^−3 M) with 800 μL of the solution of probe 3 or luminol (1.0×10^−6 M). The voltage of the photomultiplier tube (PMT) was set at −400 V. In the case of H2O2, 200 μL of its solution (1.0×10^−2 M) was used, and the voltage of PMT was set at −800 V; the other conditions were identical to those used for the other ROS.

O=C(O)c1cc2c(=O)[nH][nH]c(=O)c2cc1-c1c2ccc(=O)cc-2oc2cc(O)ccc12 [compound 3]
time to completion of reaction with non-H2O2 ROS: ≤ 20 s
